# Assay results from PubChem BioAssay AID488809 (Broad Institute, 2010).
# This list was built around the results that the source calls inconclusive (neither active nor inactive); the mix of calls is not that of the screen. The source made the active and inactive calls. No rule for the calls is given here.
# Test: cytotoxicity in NIH-3T3 fibroblasts, dose response, cytotoxicity control for antifungal drug resistance project, cell-based, Alamar Blue, fluconazole, dry powder (AID 488809)
# Settings: NIH-3T3 fibroblasts + fluconazole, Alamar Blue viability, 48 h; at 26 µM (top of the series)
row,SMILES,"activity change, negative = toxicity"
1,c1ccc(-c2n[nH]c3ccccc23)cc1,inconclusive: -16.1%
2,O=C(O)c1nn(Cc2ccc(Cl)cc2)c2ccccc12,inactive: -16%
